Experimental data: US20070117842A1, “Polymorph of 4-[3-chloro-4-(cyclopropylaminocarbonyl)aminophenoxy]-7-methoxy-6- quinolinecarboxamide and a process for the preparation of the same” (priority 2003, published 2007)

The chains behind the UniProt entries cited, without tags or fusion partners. Residues count along the entry.
UniProt P10721, 26-976: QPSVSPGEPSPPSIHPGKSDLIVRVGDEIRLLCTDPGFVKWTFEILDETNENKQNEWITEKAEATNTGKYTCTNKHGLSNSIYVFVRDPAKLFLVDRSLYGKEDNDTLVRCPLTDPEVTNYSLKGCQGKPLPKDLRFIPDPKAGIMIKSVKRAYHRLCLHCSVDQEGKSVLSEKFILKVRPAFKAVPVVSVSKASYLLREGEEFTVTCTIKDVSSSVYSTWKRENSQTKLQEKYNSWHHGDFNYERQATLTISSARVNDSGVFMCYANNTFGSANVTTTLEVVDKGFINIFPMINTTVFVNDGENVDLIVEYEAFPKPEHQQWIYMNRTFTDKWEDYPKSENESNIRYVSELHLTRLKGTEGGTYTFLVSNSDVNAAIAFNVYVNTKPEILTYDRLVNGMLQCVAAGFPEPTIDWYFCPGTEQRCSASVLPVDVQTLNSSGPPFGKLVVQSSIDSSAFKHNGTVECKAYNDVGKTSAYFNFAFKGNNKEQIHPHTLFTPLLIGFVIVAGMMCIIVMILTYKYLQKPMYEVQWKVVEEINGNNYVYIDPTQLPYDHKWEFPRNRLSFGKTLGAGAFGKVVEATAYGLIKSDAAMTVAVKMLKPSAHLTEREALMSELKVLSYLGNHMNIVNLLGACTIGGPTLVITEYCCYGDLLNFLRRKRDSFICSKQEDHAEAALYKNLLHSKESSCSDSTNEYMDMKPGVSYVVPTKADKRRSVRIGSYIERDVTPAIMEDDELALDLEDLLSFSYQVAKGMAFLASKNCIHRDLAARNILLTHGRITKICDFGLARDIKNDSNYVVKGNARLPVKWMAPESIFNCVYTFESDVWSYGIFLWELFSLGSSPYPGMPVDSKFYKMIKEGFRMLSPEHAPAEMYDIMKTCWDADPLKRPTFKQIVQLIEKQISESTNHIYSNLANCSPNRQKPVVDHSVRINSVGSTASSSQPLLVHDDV

Columns and labels:
[1] = system: small cell lung cancer cell line H-526 expressing c-Kit kinase; assay: Effect on cell proliferation stimulated by SCF; format: cell-based; conditions: Homo sapiens, NCI-H526; H-526 cells, SCF stimulation, 7th day, Cell Counting Kit-8; read-out: IC50 (concentration required for 50% inhibition of the cell proliferation)
Procedure: 4-(3-Chloro-4-(cyclopropylaminocarbonyl)aminophenoxy)-7-methoxy-6-quinolinecarboxamide was tested for their effects on the proliferation of the small cell lung cancer cell line H-526 expressing c-Kit kinase (purchased from ATCC: CRL-5811). 4-(3-Chloro-4-(cyclopropylaminocarbonyl)aminophenoxy)-7-methoxy-6-quinolinecarboxamide was prepared similarly to the method described in Preparation Examples 1 to 3. H-526 cells were cultured in a 5% CO2 incubator (37° c.) using an RPMI1640 medium (Nissui Pharmaceutical Co., Ltd.) containing 10% FCS (purchased from Cell Culture Technologies). After culturing, H-526 cells were washed with PBS three times and were suspended in an RPMI1640 medium containing 0.1% BSA (Sigma Corporation) (hereinafter abbreviated as “BSA-RPMI1640”) at 1.0×10^5 cells/ml. […] After color development, the absorbance of each well was determined using a MTP-32 plate reader (Colona Electric Co., Ltd.) at a measuring wavelength of 450 nm and at a reference wavelength of 660 nm. The absorbance of each well was subtracted by the absorbance of the well without addition of SCF, and then the ratio of the absorbance of the well with addition of the test substance to the ratio of the absorbance of the well without addition of the test substance was determined. […]

c-Kit kinase = c-Kit kinase (Homo sapiens, UniProt P10721); assay: Effect on c-Kit kinase phosphorylation by SCF stimulation (immunoblot); format: cell-based; design: in the small cell lung cancer cell line H-526 expressing c-Kit kinase; host or cells: H-526 small cell lung cancer cells; conditions: H-526 cells
Procedure: 4-(3-Chloro-4-(cyclopropylaminocarbonyl)aminophenoxy)-7-methoxy-6-quinolinecarboxamide was tested for its effect on the phosphorylation of the c-Kit kinase molecule by SCF stimulation in the small cell lung cancer cell line H-526 expressing c-Kit kinase.
H-526 cells were cultured in a 5% CO2 incubator (37° c.) using an RPMI1640 medium containing 10% FCS. After culturing, H-526 cells were washed with PBS three times and were suspended in a BSA-RPMI1640 medium at 5.0×10^5 cells/ml. Each 1 ml of this cell suspension was inoculated to the well of a 24-well plate and the suspension was cultured in a 5% CO2 incubator (37° c.) for 6 hours. After 6-hours culturing, 1 ml of BSA-RPMI1640 containing a diluted test substance (4-(3-Chloro-4-(cyclopropylaminocarbonyl)aminophenoxy)-7-methoxy-6-quinolinecarboxamide) was added to each well and culturing was carried out in a 5% CO2 incubator (37° c.) for 1 hour. Additional culturing was then carried out in a 5% CO2 incubator (37° c.) for 5 minutes after the addition of 10 μl of SCF (10 μg/ml, R&D Corporation). After 5-minutes culturing, the cells were washed with PBS and 100 μl of SDS sample loading buffer was added to the cells to prepare a cell lysate sample. After the sample was heat-treated at 94° c. for 10 minutes, it was cryopreserved at −20° c. […]

IC50 [1]: 0.19 µM
phosphorylation inhibitory activity relative to 4-(3-chloro-4-(cyclopropylaminocarbonyl)aminophenoxy)-7-methoxy-6-quinolinecarboxamide (c-Kit kinase): approximately one tenth
Structure (SMILES): Cc1ccc(NC(=O)c2ccc(CN3CCN(C)CC3)cc2)cc1Nc1nccc(-c2cccnc2)n1 [STI571, reference compound]
